Source: patent publication US8563715B2, “Pyrimidine derivative having cell protecting effect and uses thereof” (Zenyaku Kogyo Kabushikikaisha, priority 2008, dated 2013)
For at least one compound, name, drawing or mass did not settle the structure.

Test system: rat brain homogenate (lipid peroxide production)
Assay: Antioxidant activity test (rat brain homogenate autoxidation test)
Type: biochemical
Conditions: lipid peroxide production suppression, 2 hours at 37 degrees Celsius, thiobarbituric acid method
Experimental: The cerebrum was removed from 7 to 11 week old male Wistar rats (Nihon Ikagaku) or male Sprague-Dawley (IGS) rats (Charles River), physiological saline was added, and a 20% brain homogenate was made. 4 μl of test compound dissolved in DMSO was mixed with 200 μl of brain homogenate and 200 μl of PBS (−) (diluted 100 times), incubated for 2 hours at 37 degrees Celsius and shaken at a rate of 160 times per minute, thereby producing a lipid peroxide. After cooling for 5 minutes, the produced lipid peroxide was measured as a thiobarbituric acid reactive substance by using the thiobarbituric acid method. Briefly, 100 μl of 8.1% dodecyl sulfate, 750 μl of 20% acetic acid adjusted to a pH of 3.5, and 750 μl of 0.8% thiobarbituric acid were added, and boiled for 60 minutes, and then cooled. Next, 500 μl of distilled water and 2.5 ml of N-butanol/pyridine (15:1) were added and after 5 minutes of shaking, the supernatant was taken after centrifuging for 10 minutes at 3000 rpm, and the absorbance at 532 nm was measured. The number of examples was 2 examples. Calculation was done of the (absorbance at each concentration/absorbance of a solvent control)×100, and after logit transformation, the lipid peroxide production suppression effect (IC 50 value) was calculated as an indicator of antioxidant activity.

**Q.** How did the IC50 turn out when `Fc1c(N2CCOCC2)nc(N2CCN(C3CCCCC3)CC2)nc1N1CCOCC1` [Compound 123, 2-(4-cyclohexylpiperazin-1-yl)-5-fluoro-4,6-dimorpholinopyrimidine] was run?
**A.** The IC50 was 13.3 µM.
